Test results: PubChem BioAssay AID1347426 (Functional Genomics Laboratory (NCATS/FGL), 2020)
The whole screen tested about 31,000 sequences, of which about 1,400 (4.5%) were called active.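 Rule for the calls: active = median seed-adjusted z-score above 1 or below -1; inactive = the rest.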 This is one part of the list.

Test: Novel Modifiers of Survival Motor Neuron (SMN) Protein: Gene Identification via Genome-wide siRNA Screen;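 note: luminescence tracks full-length SMN protein made from the SMN2 reporter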
Settings: HEK293T SMN2-luciferase reporter, siRNA knockdown, 72 h; actives lie on both sides
Method in brief: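 Each of three siRNAs per gene is reverse-transfected (1 pmol) into reporter HEK293T cells whose luciferase output tracks SMN protein level. After 72 h culture, ONE-Glo luminescence is control-normalized, log10-transformed and MAD-standardized; Common Seed Analysis deprioritizes seed-driven hits.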

Sequence	median seed-adjusted z-score
GCAUUCACAUGUACUCCUATT against SLC26A5	inactive: -0.252
GGAAGAAUAUGUUUAGAUATT against UBE2N	inactive: 0.995
GAAAUUGUGCUGUGAUGUUTT against FCN2	inactive: 0.281
CAAUCGAGCUGUUGGAUAATT against MAP4K3	inactive: -0.49
GCACGGCAGCUUAAGGUAATT against RRAS2	inactive: -0.0229
GGCCUCUACUCUUCUGAAATT against PDLIM1	inactive: -0.189
CACCGUCUUCGAGAACUAUTT against RHOB	inactive: -0.776
GGGCCCAAAUCUUACCUUUTT against LIMD1	inactive: 0.587
AUCUGUGGUUUGUCCGAUATT against RNF114	inactive: 0.452
AGAUAACGGAUUUGGGAUATT against ZNF592	inactive: 0.0774
CGAUUACUCCAAAUGUAAATT against EIF2B1	inactive: 0.206
CCGUGUUUCUGAGCUAGAATT against CLTCL1	inactive: 0.341
GUCUCACUGUAGAUCCUGATT against SCYL1	inactive: 0.0409
CCACAACGGACAGUCCAUATT against CYP17A1	active: -1.39
GCAUAAUUGUCAGCCGUAUTT against SCML1	inactive: 0.575
GGCCUCUCCCUGUAUGAAATT against GON4L	inactive: 0.116
GUACCUGCCUGUAACUCUATT against GANAB	inactive: 0.269
GCGUGAUGAGAUCCUGUUATT against ALDH18A1	inactive: 0.116
ACACGUACCCUACAUCUUATT against EPHB6	inactive: -0.0275
GAACAAUGCUGAGUUGAAUTT against CPB1	inactive: -0.376
GGAAUACCUCUACUAACAATT against RAGE	inactive: -0.154
GUGCCUUACUUGAUAUGGATT against STXBP4	inactive: -0.565

Sequence	median seed-adjusted z-score
GAGGCAACUUUUAAGCUGATT against OLAH	inactive: -0.44
AAGGCUACUUAACAAAGGATT against S100A10	inactive: 0.366
GGAAAACCUUUACACGUAATT against ZNF445	inactive: -0.0752
GCAUCGUGAUCGUUCCAAUTT against CHD1L	inactive: 0.63
GCUACAAGAUGACACCUCATT against BCL2L12	inactive: -0.77
CCUAUAAGGAGAUUUCAUATT against BCL2A1	inactive: 0.0557
CAUUGGAAAUUACGAGAAATT against APPBP2	inactive: -0.0432
CCAUCUUUCUCAAGCUCGATT against CNTNAP2	inactive: -0.196
UGAAGUGCAUCAACCACUATT against EFEMP2	inactive: -0.143
CUUUGACUAUAAGGACAAATT against CYP2A6	inactive: 0.117
CCAAUACACUAGCAGUUAATT against TCP1	active: -1.02
GGACCUGUCUUGUGGUUCATT against SIRPD	inactive: -0.257
GAGUAUCCACAGAAGUAGATT against TALDO1	inactive: 0.131
GGCUAUAAUAGACACGAGATT against CDH6	inactive: 0
GGAUCACAACCGAGCUAAATT against MDH1	inactive: -0.154
UGAUAGAGAUCAACCCAUATT against PSMB5	active: -1.37
GCAGUGCUCCUACAUCCCATT against KCNMB1	inactive: -0.465
GCUACGACGUGAACGGCAATT against PCSK6	inactive: 0
GCAUUGACCAUCUAUGAGATT against IFNB1	inactive: 0
CCUUUGAUCCUAAGCCCAUTT against GLUL	inactive: -0.307
CCUGAUUACUAUAAGAUCATT against BRD4	active: 1.13
UCCUUUUCCUCAAGCUCUATT against MGAT3	inactive: -0.118

Sequence	median seed-adjusted z-score
CGUAGUCCAUGUGAAGUCATT against IDH3B	inactive: -0.642
GGAAGACACUGUUCGAUCATT against GDAP2	inactive: 0.199
CGACUGUCCUUCUAUGAGATT against NOP56	inactive: 0.307
GAAGGCGGUUAUACAAUUATT against ACSL4	inactive: -0.0582
GAAUCUAUCCCAUUGAUCUTT against DDX1	inactive: 0.507
CAGCCUUCAUGAGAUGUUATT against AMPD3	inactive: -0.0865
CCUUAGCGGUAGUAACUUUTT against MGP	inactive: -0.0854
GCGACCAACUGAUUGUCGATT against PTPRZ1	active: 1.73
GCUAUGUCAUCACUACCAATT against KCNAB3	inactive: 0.0697
CAUCGUGGGCGUGAACAAATT against EEF1A2	inactive: -0.64
GUUCUUCACUUCAGGAACATT against AGPAT2	inactive: 0.38
GAAUAGUGUUCGGAUUGGATT against ST8SIA3	inactive: -0.848
GCAUUAAAAGCUACUUUCATT against ETS1	inactive: -0.0588
ACCGACUCAUGAGACAUAATT against ZNF548	inactive: -0.508
AGACCAAGGUCAACGUGCATT against FLRT1	inactive: -0.00451
GCACACUGCAUACAACCGATT against ESSPL	inactive: 0.328
CAAUUGGAAUCGUCUUUUUTT against UBAC2	inactive: 0.611
AAGACAUGAUGUUCCACAATT against ADCY6	inactive: -0.0652
CCAUCGGCAUCACCUUCUATT against SLC35C2	inactive: -0.483
GAGCCGUGGUUUUAAGGAUTT against EIF4A2	inactive: 0
AGAUCCUCCUGUACAUAGATT against CYP4F3	inactive: -0.336
GGAUGGAGCUUCACACGAUTT against RGL2	inactive: 0.174

Sequence	median seed-adjusted z-score
CACUGAUAACCAACACUGATT against ST14	inactive: -0.534
GUGUUUGACGGGAAACAAATT against CD8A	inactive: 0.777
GAAUGCAUGUGAUCACCUATT against SF3B14	active: -1.26
GUAUCGAAGAAGUGAUAAATT against ALDH1A3	inactive: 0.228
GGUCCAAUUUAACCAACUATT against TEKT3	inactive: 0.0494
GCAUGUAAUGAGUAUCACATT against MRS2	active: 1.38
GCAACUACAAGGCUAUAUUTT against FRK	inactive: -0.14
CCAGGCCAACAAUUGCCAGTT against AMH	inactive: -0.255
GUUAUACCUUAGUUACUUUTT against FUT9	inactive: 0.0444
CUAUCUAGGCUAUUCAAUATT against RHOT1	inactive: -0.189
CCAUCAUACCUUCUUUGAATT against AARS2	inactive: -0.52
CAGUCAAGACUUUACCACUTT against CLCN1	inactive: 0.314
GGCUUGGAUCAAUCUAAGATT against HNRNPL	active: 1.04
GCAUCUGACAUAAUAGUCATT against SP100	inactive: -0.235
AGAUGUGACUGGCUGGUCATT against LCN12	inactive: 0.124
GGAGGUGGUUCAAUUCGAATT against DARS2	inactive: 0.0673
CGGACCAAGUUAAGCGGAATT against ATP2A1	inactive: -0.0384
CCACGAUCUAUGAAGGUUATT against MCM9	inactive: -0.709
GCUUUAUCGAUAUAUACCATT against SLC25A14	inactive: 0.281
CGAAGACGCAUUUAGUAAATT against HLF	inactive: 0.0548
GGCUCAUUAUUAAUAGAUUTT against HIBADH	inactive: 0.234
CAAAUUCCGAAGCAUCUUATT against RNPEP	inactive: -0.236

Some of the entries above, set out differently:

| Sequence | median seed-adjusted z-score |
| --- | --- |
| AAGACAUGAUGUUCCACAATT against ADCY6 | inactive: -0.0652 |
| CCAUCGGCAUCACCUUCUATT against SLC35C2 | inactive: -0.483 |
| GAGCCGUGGUUUUAAGGAUTT against EIF4A2 | inactive: 0 |
| AGAUCCUCCUGUACAUAGATT against CYP4F3 | inactive: -0.336 |
| GGAUGGAGCUUCACACGAUTT against RGL2 | inactive: 0.174 |
| CACUGAUAACCAACACUGATT against ST14 | inactive: -0.534 |
| GUGUUUGACGGGAAACAAATT against CD8A | inactive: 0.777 |
| GAAUGCAUGUGAUCACCUATT against SF3B14 | active: -1.26 |
| GUAUCGAAGAAGUGAUAAATT against ALDH1A3 | inactive: 0.228 |
| GGUCCAAUUUAACCAACUATT against TEKT3 | inactive: 0.0494 |
| GCAUGUAAUGAGUAUCACATT against MRS2 | active: 1.38 |
| GCAACUACAAGGCUAUAUUTT against FRK | inactive: -0.14 |
| CCAGGCCAACAAUUGCCAGTT against AMH | inactive: -0.255 |
| GUUAUACCUUAGUUACUUUTT against FUT9 | inactive: 0.0444 |
| CUAUCUAGGCUAUUCAAUATT against RHOT1 | inactive: -0.189 |
| CCAUCAUACCUUCUUUGAATT against AARS2 | inactive: -0.52 |
| CAGUCAAGACUUUACCACUTT against CLCN1 | inactive: 0.314 |
| GGCUUGGAUCAAUCUAAGATT against HNRNPL | active: 1.04 |
| GCAUCUGACAUAAUAGUCATT against SP100 | inactive: -0.235 |
| AGAUGUGACUGGCUGGUCATT against LCN12 | inactive: 0.124 |
| GGAGGUGGUUCAAUUCGAATT against DARS2 | inactive: 0.0673 |
| CGGACCAAGUUAAGCGGAATT against ATP2A1 | inactive: -0.0384 |
| CCACGAUCUAUGAAGGUUATT against MCM9 | inactive: -0.709 |
| GCUUUAUCGAUAUAUACCATT against SLC25A14 | inactive: 0.281 |
| CGAAGACGCAUUUAGUAAATT against HLF | inactive: 0.0548 |

(continued)

Sequence	median seed-adjusted z-score
GAAGAAUAGUGAUGCUCGATT against GRIA1	inactive: 0.927
AGAACACGGAGAUUAGUUUTT against FABP7	inactive: 0.562
GGAUGAUCUUUUUGAUAGATT against TOP1	inactive: 0.0303
GGUCUUCAGUCGAAUUACATT against ZNF766	inactive: -0.577
GGAGGAUGACUUGACUGAUTT against FCRLA	inactive: 0.03
GAAUAGACGGCACCAUAGATT against RYR2	inactive: -0.354
GAUUAGGAGUACAUACGAATT against PAPOLB	inactive: 0.749
GCUACAAUGGUUCUCCAAATT against TFCP2L1	inactive: -0.246
GCACCAAAGUAAACGCAGATT against TNFRSF11B	inactive: 0.582
CGCACAACUGUCAAAUAUATT against SLC9A5	inactive: -0.545
CACUUGCUUCAAUCGAAUATT against SMURF2	inactive: 0.351
GAAUGAAAUCAGAGUAUAATT against RNF125	inactive: 0.204
GUAUGAAGGAGGUAUCUUUTT against UMPS	inactive: 0.191
GGUGUGAACCUGACACGCATT against PYCR2	inactive: 0.00371
AGCUCGUCAGCUACACCAATT against SLC12A4	inactive: -0.0667
CAGAGGUUCGAGAAAAUGATT against HK2	inactive: -0.0135
CCAACUAUCUAACUCCACUTT against UTX	inactive: 0.157
UGACUUUCCUCUCUACGGUTT against SLC10A3	inactive: -0.25
GCUUUAUGUGGGCUCAUUATT against RBM39	active: -1.82
